Record: PubChem BioAssay AID504804 (Drosophila RNAi Screening Center, 2011)
Aim: 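Knock-downs shielding fly cells from apoptosis caused by DNA damage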 (primary screen). System: Drosophila Kc cells. Reagents: long dsRNA against Drosophila genes, 0.5 µg dsRNA per well. Time to read-out: 96 h (48 h knock-down, then 48 h drug). Conditions: doxorubicin 5 µg/ml for 48 h, added 48 h after dsRNA. Measurement: 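Luminescent ATP counts per replicate, not normalised, reflecting viable cells after 48 h dsRNA knock-down followed by 48 h of 5 µg/ml doxorubicin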. Direction: raw ATP luminescence: higher = more viable cells, protection from doxorubicin. Call rule: 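z-score of 2 or more over plate mean in both duplicates, retained only when retests and separate dsRNAs confirm the protection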.
The deposit covers about 19,000 reagents; this is a random part of those with a known target gene and a result. Over the whole deposit, 47 (0.25%) are marked active. 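Signals are raw, not normalised; exact z-scores behind calls not deposited; actives needed confirmation, so some wells reaching 2 SD are inactive.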 A plus sign joins genes that one reagent is predicted to hit.

target gene,DRSC id,"raw ATP luminescence, replicate 1","raw ATP luminescence, replicate 2",outcome
CG15370,DRSC18042,2.93e5,3.03e5,inactive
CG30492 (retired record) + M7BP,DRSC05053,84543,84977,inactive
CG30492 (retired record) + M7BP,DRSC05054,71483,75923,inactive
CG30492 (retired record) + M7BP,DRSC05055,99053,1.14e5,inactive
CG30492 (retired record) + M7BP,DRSC06701,44923,86390,inactive
CG30492 (retired record) + M7BP,DRSC06816,41373,79733,inactive
Vml,DRSC17695,2.26e5,2.23e5,inactive
Vml,DRSC18529,43840,56890,inactive
Rh50,DRSC08692,37920,35000,inactive
Cip4,DRSC08091,1.64e5,1.80e5,inactive
Cip4,DRSC08469,31167,41323,inactive
FucTB,DRSC02745,49290,83773,inactive
CG32830 (retired record),DRSC01162,73300,79230,inactive
Surf4,DRSC16875,1.00e5,72690,inactive
Aef1,DRSC11605,62870,67800,inactive
CG17549,DRSC02625,1.13e5,73803,inactive
CG31245,DRSC15498,64450,74290,inactive
CG8852,DRSC00719,26720,41433,inactive
CG17030,DRSC08503,82407,80890,inactive
CG31957,DRSC00207,2.82e5,3.37e5,inactive
r + CG13012,DRSC19531,4.06e5,3.35e5,inactive
CG30116,DRSC05935,64217,57227,inactive
CG17359,DRSC10265,62610,47120,inactive
ana,DRSC07579,52437,46410,inactive
ort,DRSC16240,50230,70840,inactive
tant,DRSC11401,85740,72893,inactive
Ge-1,DRSC02938,65767,76403,inactive
Nubpl,DRSC03725,68630,67383,inactive
ArfGAP3,DRSC11794,37870,23813,inactive
Fbw5,DRSC03146,27773,29687,inactive
CG31751,DRSC02464,42497,43487,inactive
CG31751,DRSC02465,45153,40587,inactive
ARY (retired record),DRSC20867,2.39e5,2.24e5,inactive
IRSp53,DRSC10891,93923,85033,inactive
bumpel,DRSC16100,55180,58330,inactive
Rab32,DRSC05146,81167,70020,inactive
Rab32,DRSC07522,77090,72313,inactive
CG31729,DRSC02524,95107,72363,inactive
CG31729,DRSC02946,51230,82773,inactive
Epac,DRSC04969,1.71e5,2.02e5,inactive
Epac,DRSC04996,73077,51290,inactive
Epac,DRSC04997,32593,67680,inactive
CG17298,DRSC15221,48950,39810,inactive
Dop1R2,DRSC13958,1.92e5,2.26e5,inactive
Dop1R2,DRSC15379,55220,50920,inactive
TM9SF3,DRSC09747,62013,74253,inactive
Acp36DE,DRSC01860,59620,74667,inactive
CG12111,DRSC17808,54920,57140,inactive
CG32176,DRSC10057,31570,33713,inactive
CG32176,DRSC10058,52340,41980,inactive
Sbds,DRSC10992,43733,39847,inactive
CG17707,DRSC20650,3.60e5,3.32e5,inactive
CG13712,DRSC08321,78030,81940,inactive
CG34238,DRSC09040,1.96e5,2.04e5,inactive
Alg11,DRSC11647,23690,25167,inactive
Amyrel,DRSC05920,60927,56313,inactive
Taf1,DRSC12607,64403,66333,inactive
